Changes are numbered by the printed parent chain. These are yes or no findings as the source states them, for the method shown. Binding seen in cells or lysates may run through a third protein. Some entries that bind do so weakly or less than the wild type. For some assays here: Sequences can lack the tags named with a protein.
Assays:
[1] = target: T1, PIMT S656A-V5 (phospho-deficient mutant of human PIMT) (human) (UniProt Q96RS0); assay: co-IP; IP with anti-V5 antibody from lysates of mouse primary hepatocytes infected with lentivirus for PIMT-V5 (W or mutants), immunoblots for Ep300 and CBP; cells treated with DMSO or Forskolin for 4h (Figure 6B) or untreated 48h after infection (Figure 6D); RIPA lysis buffer
T1 sequence: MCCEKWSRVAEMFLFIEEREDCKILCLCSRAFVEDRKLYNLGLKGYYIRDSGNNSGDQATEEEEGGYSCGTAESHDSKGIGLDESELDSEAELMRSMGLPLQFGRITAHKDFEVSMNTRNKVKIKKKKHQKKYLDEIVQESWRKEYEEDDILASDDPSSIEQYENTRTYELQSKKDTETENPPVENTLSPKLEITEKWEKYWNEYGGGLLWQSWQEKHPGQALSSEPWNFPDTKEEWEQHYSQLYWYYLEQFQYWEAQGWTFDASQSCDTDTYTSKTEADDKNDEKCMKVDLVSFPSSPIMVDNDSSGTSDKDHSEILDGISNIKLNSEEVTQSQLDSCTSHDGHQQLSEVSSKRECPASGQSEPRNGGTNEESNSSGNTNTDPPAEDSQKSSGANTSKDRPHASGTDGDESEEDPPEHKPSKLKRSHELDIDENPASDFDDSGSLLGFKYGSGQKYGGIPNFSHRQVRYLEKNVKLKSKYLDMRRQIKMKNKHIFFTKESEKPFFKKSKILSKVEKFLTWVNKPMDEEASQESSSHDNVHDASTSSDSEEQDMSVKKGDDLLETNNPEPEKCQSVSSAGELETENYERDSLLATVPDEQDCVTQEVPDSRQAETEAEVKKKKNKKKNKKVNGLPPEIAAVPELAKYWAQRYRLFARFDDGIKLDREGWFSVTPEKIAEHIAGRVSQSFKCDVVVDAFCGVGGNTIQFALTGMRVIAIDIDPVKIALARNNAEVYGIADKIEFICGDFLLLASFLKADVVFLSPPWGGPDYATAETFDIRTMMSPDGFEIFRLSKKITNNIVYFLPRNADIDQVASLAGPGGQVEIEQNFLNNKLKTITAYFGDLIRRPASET

The chains behind the UniProt entries cited, without tags or fusion partners.
UniProt B2RWS6: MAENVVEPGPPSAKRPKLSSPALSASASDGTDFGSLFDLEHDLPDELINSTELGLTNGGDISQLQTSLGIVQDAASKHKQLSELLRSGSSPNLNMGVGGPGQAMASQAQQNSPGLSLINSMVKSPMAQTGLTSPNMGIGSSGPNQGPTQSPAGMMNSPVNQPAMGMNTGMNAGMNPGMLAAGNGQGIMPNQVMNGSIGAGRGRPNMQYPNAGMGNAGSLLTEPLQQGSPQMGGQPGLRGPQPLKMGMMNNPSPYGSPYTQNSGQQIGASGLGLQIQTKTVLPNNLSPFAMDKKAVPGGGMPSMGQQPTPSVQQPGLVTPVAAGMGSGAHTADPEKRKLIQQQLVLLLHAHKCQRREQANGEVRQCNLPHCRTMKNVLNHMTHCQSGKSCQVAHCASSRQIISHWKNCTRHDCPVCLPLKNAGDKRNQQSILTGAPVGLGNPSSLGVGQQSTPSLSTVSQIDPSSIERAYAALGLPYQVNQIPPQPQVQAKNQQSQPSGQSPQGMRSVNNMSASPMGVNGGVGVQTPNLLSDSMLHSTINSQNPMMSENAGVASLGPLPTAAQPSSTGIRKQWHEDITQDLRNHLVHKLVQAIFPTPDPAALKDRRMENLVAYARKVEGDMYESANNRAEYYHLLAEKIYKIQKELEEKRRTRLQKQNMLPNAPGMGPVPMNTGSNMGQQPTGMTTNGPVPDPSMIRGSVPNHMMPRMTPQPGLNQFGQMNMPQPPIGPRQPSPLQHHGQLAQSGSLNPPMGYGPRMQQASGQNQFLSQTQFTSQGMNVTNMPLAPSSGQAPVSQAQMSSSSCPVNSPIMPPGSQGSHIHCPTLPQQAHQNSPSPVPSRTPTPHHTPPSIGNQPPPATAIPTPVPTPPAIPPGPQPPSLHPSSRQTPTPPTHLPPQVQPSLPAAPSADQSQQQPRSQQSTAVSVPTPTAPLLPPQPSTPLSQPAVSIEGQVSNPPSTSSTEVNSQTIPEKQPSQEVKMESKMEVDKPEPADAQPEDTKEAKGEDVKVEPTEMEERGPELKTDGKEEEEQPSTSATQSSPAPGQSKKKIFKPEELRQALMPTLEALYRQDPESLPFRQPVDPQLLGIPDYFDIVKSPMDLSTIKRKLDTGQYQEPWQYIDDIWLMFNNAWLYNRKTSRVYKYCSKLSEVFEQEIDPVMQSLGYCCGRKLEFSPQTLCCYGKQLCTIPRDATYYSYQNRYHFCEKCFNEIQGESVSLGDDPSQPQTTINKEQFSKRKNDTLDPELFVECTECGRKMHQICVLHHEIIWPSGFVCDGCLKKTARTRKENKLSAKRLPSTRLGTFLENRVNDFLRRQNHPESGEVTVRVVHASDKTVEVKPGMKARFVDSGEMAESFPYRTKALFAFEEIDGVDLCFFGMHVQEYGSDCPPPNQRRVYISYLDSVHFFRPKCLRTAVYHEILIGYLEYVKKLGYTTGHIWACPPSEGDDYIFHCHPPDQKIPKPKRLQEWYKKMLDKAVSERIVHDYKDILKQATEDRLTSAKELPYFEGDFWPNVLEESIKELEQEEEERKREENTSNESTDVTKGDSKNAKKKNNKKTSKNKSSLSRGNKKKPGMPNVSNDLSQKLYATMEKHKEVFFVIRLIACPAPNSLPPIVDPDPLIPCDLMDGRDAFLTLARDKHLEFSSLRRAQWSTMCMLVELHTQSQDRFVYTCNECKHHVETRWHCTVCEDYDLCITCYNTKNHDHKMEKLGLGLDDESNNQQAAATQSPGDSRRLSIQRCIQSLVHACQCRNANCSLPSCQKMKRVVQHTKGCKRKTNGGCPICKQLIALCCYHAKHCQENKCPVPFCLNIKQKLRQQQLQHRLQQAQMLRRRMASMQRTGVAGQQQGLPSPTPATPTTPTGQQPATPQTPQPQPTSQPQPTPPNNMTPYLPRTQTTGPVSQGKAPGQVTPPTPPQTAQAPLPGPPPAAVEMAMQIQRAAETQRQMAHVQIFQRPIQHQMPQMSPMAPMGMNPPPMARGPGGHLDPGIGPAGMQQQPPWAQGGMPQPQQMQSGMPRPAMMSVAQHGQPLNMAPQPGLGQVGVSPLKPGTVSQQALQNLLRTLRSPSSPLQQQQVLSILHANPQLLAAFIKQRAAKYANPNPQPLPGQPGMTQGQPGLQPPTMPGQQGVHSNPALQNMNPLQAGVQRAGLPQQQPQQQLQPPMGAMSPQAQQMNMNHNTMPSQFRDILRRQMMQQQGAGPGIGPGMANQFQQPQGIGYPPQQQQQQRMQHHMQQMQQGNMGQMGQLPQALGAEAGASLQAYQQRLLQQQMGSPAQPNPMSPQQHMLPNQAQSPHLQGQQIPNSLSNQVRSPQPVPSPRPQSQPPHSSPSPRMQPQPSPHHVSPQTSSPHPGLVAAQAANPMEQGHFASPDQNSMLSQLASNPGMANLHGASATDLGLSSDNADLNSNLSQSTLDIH
UniProt P45481: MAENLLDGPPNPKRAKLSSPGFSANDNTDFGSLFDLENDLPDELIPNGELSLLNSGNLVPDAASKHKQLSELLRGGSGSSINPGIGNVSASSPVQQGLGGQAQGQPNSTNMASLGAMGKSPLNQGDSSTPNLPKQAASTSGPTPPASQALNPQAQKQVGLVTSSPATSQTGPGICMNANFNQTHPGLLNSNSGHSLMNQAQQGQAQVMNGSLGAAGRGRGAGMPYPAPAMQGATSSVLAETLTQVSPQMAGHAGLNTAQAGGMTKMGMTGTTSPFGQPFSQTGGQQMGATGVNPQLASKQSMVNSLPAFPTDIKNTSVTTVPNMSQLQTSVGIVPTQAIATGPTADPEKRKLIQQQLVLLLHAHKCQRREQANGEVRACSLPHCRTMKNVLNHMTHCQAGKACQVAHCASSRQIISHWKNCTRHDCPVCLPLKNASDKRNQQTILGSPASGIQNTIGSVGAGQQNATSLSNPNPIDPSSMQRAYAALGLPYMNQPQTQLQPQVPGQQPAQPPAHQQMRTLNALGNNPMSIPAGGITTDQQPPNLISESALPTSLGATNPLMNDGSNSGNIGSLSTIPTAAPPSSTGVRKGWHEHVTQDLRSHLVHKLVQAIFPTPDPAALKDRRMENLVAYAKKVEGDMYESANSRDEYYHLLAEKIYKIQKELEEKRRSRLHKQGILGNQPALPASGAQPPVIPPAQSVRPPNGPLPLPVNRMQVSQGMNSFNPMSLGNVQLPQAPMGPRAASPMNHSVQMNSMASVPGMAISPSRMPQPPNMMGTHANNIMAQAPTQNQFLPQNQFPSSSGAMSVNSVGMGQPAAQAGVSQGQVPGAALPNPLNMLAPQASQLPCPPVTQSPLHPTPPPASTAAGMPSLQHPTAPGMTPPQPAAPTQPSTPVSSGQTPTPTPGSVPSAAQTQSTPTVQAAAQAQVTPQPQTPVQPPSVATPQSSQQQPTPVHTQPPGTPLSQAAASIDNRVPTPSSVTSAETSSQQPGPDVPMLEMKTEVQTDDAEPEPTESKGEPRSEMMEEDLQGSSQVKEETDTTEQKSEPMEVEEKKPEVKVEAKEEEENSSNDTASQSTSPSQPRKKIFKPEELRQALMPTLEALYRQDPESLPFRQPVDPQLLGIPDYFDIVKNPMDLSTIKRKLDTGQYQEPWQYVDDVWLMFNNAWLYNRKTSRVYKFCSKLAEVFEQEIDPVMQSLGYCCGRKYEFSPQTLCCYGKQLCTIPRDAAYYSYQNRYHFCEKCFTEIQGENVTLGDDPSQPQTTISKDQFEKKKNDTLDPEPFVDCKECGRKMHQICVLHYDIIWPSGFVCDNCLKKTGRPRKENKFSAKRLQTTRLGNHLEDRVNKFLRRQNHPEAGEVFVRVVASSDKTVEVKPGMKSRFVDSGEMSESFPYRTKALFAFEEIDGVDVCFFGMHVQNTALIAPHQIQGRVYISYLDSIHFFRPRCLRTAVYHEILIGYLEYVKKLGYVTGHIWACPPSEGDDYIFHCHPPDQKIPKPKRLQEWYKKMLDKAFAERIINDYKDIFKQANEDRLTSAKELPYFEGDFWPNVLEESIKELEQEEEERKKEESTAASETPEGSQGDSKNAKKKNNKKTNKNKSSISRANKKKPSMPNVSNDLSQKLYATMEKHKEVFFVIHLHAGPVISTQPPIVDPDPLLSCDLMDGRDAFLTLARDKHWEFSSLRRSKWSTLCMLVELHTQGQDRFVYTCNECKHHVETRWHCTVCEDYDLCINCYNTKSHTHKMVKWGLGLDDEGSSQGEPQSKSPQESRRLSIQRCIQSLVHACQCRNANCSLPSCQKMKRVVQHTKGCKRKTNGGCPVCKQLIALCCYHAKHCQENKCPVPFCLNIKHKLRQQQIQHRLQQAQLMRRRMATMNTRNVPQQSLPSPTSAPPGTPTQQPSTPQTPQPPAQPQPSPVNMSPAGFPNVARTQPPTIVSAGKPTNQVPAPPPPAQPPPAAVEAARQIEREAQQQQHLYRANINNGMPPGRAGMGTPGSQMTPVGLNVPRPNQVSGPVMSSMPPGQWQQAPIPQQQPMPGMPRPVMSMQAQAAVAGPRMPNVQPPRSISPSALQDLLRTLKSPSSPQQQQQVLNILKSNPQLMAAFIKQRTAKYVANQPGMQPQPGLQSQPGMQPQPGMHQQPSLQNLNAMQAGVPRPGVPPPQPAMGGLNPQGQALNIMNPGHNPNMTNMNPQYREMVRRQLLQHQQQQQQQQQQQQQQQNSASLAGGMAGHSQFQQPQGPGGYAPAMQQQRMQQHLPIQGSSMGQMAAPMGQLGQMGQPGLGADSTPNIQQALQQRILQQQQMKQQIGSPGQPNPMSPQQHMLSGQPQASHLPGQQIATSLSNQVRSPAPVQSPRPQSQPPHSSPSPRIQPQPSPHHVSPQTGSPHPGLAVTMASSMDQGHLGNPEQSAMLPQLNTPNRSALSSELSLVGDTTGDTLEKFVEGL
UniProt Q923W1: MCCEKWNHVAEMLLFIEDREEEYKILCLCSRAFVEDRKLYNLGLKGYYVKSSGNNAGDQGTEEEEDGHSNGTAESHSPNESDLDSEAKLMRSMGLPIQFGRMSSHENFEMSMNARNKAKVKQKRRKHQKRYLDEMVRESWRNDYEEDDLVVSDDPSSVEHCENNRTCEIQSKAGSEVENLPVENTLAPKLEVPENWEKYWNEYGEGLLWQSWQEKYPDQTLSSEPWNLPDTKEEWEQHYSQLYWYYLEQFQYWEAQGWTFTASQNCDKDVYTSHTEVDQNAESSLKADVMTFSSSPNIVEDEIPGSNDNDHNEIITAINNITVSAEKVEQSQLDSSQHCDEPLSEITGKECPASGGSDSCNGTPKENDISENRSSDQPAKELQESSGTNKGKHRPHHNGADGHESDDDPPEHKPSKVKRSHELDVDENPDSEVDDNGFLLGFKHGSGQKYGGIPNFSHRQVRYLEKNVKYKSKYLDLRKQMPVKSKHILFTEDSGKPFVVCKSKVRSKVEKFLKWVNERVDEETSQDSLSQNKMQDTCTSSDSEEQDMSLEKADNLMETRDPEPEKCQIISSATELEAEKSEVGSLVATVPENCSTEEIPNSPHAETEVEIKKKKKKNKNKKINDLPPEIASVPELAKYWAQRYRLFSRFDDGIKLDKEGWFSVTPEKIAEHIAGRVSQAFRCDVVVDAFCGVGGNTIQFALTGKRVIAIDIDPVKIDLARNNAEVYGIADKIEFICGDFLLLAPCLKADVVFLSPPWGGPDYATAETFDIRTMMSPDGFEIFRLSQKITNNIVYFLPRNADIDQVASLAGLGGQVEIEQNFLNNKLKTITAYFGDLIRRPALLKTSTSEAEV

[2] = target: PIMT-V5 (wild type human PIMT/TGS1, PRIP Interacting protein with Methyl Transferase domain/Trimethyl guanosine synthase I) (human) (UniProt Q96RS0); assay: as above
[3] = target: T2, PIMT S656D-V5 (phospho-mimetic mutant of human PIMT) (human) (UniProt Q96RS0); assay: as above
T2 sequence: T1 sequence with A656D

[4] = target: Ep300 (endogenous, mouse) (mouse (endogenous in primary hepatocytes and liver)) (UniProt B2RWS6); assay: co-IP; IP with anti-Ep300 or anti-CBP bound to protein A/G beads, 2h at 4 °C, from liver lysates of fed or 8h fasted mice, immunoblot for endogenous PIMT; RIPA lysis buffer; also livers of ob/ob and HFD-fed mice (Figures S9E-S9H)
[5] = target: CBP (endogenous, mouse) (mouse (endogenous in primary hepatocytes and liver)) (UniProt P45481); assay: as above

Row | binding [1] | binding [2] | binding [3] | binding [4] | binding [5] | Substance
1 | binds | binds | binds |  |  | CBP (endogenous, mouse) (from UniProt P45481 1-2441)
2 |  |  |  | binds | binds | PIMT (endogenous, mouse) (from UniProt Q923W1 1-853)

Reference: publication PMC9972567
